This assay addresses MsParA (Ms6939), endogenous in M. smegmatis (M. smegmatis (endogenous in M. smegmatis)) (UniProt A0R7J4). In words: co-IP.

Amino acid sequences for entries named in this document (tags omitted). A change or cut given only in a name is not applied to a line headed by its entry.
UniProt A0R7J4: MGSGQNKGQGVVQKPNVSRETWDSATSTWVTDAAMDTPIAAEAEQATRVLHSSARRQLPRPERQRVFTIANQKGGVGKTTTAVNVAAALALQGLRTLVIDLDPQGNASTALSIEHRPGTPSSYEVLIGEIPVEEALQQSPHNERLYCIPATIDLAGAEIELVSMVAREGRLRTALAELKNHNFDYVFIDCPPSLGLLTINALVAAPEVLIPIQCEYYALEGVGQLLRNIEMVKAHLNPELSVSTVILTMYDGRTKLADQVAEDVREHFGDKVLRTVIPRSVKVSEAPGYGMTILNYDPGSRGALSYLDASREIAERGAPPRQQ

Results are given in words; binding and its absence hold for the method and conditions named. Binding seen in cells or lysates may run through a third protein. Binding calls can cover weak binding; strength is not graded here. Where a sequence is shown, tags or fusion partners need not be part of it.

B1: MtTAG (Rv1210) expressed in M. smegmatis (enzyme, UniProt L7N613 1-204)
chain: MSGDGLVRCPWAEVRPGPDAQLYRDYHDNEWGRPLYGRVALFERMSLEAFQSGLSWLIILRKRENFRRAFSGFDIDKIARYTDTDVRRLLADDGIVRNRAKIEATIANARAAADLGSSEDLSELLWSFAPPPRPRPVDGSEIPSVSTESKAMSRELKRRGFRFVGPTTAYALMQATGMVDDHIQACWVPTERPFDQPGCPMAAR
For the molecule B1, the binding result is “binds”.

Source of the values: PMC3366916, “Characterization of a Conserved Interaction between DNA Glycosylase and ParA in Mycobacterium smegmatis and M. tuberculosis” (PLoS ONE, 2012).
